In patent US20230126199A1:
Results are given in words; binding and its absence hold for the method and conditions named. Some results given as binding are weak or reduced against the parent protein; the word gives no strength.

Protein sequences, listed by entry. Tags and fused reporters are not part of them. Lines headed by an entry give the natural chain unless they say otherwise; changes in a name come on top.
UniProt P14434: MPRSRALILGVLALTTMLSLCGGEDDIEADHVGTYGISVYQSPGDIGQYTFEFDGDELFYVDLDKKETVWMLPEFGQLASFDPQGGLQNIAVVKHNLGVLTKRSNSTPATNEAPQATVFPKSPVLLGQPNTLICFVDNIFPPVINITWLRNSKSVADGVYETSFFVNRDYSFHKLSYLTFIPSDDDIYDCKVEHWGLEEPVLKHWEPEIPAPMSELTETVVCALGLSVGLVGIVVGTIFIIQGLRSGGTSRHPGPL

Target: sc-Dimer-CD81-IL-12p40 with MHC class IIα chain (Mus musculus (Mouse)) (UniProt P14434)
Assay: co-expression of the free IL-12 subunit with the CD81-anchored subunit; IL-12 found on vesicles by flow cytometry

B1: IL-12p35 (SEQ ID NO: 97) (ligand)
chain: MWELEKDVYVVEVDWTPDAPGETVNLTCDTPEEDDITWTSDQRHGVIGSGKTLTITVKEFLDAGQYTCHKGGETLSHSHLLLHKKENGIWSTEILKNFKNKTFLKCEAPNYSGRFTCSWLVQRNMDLKFNIKSSSSSPDSRAVTCGMASLSAEKVTLDQRDYEKYSVSCQEDVTCPTAEETLPIELALEARQQNKYENYSTSFFIRDIIKPDPPKNLQMKPLKNSQVEVSWEYPDSWSTPHSYFSLKFFVRIQRKKEKMKETEEGCNQKGAFLVEKTSTEVQCKGGNVCVQAQDRYYNSSCSKWACVPCRVRS
binding: binds
